Source: the supplement of paper PMC10849652
The list shows a part of the results. Residues, ends and D or L forms follow the SMILES beside them. *: point of attachment. Cbz = O=C(OCc1ccccc1)*

By UniProt entry, the sequences of proteins in these tests, tags left out. Where a name states a change or a piece, a line headed by the entry shows the natural chain unless it says otherwise.
UniProt Q15388, whole entry, looked up: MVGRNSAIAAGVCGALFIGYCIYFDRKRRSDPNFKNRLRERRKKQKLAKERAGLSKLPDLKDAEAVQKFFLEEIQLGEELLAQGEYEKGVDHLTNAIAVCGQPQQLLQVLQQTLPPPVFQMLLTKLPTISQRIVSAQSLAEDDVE
UniProt Q12888: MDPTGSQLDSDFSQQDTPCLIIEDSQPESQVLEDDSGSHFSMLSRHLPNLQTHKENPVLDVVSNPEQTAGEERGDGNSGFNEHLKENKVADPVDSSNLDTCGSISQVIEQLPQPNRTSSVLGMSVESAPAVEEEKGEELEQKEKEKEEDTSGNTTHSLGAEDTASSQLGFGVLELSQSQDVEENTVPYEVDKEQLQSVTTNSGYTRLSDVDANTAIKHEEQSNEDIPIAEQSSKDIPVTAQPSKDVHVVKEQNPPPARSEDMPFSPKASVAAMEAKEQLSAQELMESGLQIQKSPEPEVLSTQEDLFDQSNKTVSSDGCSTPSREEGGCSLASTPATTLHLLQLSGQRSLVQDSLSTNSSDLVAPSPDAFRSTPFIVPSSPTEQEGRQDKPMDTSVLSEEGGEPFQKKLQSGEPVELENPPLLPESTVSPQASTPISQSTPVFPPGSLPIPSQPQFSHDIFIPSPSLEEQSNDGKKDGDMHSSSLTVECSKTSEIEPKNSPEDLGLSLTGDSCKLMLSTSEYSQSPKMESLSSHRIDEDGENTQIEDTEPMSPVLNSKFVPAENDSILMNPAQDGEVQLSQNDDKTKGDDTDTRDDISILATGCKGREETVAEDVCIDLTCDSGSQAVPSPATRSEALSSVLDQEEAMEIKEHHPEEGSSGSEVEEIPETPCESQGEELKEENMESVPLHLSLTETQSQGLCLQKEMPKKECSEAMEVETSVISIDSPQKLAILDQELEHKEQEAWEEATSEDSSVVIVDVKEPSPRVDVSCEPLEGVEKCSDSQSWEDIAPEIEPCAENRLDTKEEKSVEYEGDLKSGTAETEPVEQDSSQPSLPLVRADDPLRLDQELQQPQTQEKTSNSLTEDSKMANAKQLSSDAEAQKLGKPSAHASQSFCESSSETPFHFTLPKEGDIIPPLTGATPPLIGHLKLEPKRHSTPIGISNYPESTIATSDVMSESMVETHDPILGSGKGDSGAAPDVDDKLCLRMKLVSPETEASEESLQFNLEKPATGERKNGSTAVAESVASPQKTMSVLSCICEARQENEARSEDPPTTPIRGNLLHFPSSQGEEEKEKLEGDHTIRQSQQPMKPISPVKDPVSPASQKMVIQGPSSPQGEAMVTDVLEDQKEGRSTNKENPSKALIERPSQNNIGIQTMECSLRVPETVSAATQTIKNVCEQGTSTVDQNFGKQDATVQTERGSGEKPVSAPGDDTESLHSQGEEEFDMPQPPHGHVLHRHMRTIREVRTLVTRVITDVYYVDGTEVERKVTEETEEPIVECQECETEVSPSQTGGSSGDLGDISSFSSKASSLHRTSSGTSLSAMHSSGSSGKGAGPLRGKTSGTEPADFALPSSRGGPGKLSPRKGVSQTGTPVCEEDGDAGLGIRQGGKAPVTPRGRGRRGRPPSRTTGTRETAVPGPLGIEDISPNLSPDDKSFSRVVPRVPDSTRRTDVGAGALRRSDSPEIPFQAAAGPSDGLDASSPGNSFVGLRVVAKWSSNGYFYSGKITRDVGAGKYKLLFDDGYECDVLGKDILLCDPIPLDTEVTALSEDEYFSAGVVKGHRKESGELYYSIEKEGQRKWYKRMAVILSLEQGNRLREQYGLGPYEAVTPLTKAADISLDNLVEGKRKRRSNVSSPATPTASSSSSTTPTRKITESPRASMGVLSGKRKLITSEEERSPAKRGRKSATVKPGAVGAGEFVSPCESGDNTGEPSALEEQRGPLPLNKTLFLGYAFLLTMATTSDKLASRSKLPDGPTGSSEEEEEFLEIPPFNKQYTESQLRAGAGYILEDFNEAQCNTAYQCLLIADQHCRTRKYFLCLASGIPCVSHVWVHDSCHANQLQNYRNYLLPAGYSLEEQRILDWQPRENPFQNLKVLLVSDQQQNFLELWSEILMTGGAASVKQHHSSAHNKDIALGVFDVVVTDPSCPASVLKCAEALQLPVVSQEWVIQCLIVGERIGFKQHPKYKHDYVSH
UniProt Q92973: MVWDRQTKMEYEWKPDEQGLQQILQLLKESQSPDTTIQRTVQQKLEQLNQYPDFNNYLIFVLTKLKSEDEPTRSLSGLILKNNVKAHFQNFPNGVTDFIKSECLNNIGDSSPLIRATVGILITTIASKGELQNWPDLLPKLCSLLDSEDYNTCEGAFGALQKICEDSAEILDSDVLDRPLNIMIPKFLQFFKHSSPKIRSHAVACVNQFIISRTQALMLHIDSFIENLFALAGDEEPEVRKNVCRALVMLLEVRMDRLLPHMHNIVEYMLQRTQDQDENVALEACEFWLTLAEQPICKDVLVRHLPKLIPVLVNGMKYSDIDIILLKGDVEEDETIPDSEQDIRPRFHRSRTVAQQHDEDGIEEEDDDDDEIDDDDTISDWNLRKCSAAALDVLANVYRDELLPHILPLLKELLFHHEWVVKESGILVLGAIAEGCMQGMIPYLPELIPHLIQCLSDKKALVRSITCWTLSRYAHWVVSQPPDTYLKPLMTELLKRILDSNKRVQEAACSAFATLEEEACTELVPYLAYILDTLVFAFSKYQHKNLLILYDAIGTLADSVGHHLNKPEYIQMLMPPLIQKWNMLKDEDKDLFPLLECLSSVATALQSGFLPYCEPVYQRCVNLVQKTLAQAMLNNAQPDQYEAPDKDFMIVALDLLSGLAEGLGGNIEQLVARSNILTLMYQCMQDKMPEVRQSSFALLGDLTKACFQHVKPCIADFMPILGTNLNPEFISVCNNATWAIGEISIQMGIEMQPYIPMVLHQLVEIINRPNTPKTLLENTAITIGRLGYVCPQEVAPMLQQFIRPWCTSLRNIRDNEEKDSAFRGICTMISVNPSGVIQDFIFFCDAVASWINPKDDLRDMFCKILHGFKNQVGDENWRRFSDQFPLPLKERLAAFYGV
UniProt Q86W33: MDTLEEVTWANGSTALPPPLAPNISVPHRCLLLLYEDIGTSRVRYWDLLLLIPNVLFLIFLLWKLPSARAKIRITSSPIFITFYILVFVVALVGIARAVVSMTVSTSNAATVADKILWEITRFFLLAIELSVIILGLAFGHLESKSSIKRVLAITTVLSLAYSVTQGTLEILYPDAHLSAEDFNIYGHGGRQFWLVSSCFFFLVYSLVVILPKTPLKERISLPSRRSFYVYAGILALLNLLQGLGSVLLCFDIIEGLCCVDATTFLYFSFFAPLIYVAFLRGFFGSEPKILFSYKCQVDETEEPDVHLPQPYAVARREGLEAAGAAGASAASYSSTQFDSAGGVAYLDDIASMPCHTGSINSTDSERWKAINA
UniProt Q9H4I3: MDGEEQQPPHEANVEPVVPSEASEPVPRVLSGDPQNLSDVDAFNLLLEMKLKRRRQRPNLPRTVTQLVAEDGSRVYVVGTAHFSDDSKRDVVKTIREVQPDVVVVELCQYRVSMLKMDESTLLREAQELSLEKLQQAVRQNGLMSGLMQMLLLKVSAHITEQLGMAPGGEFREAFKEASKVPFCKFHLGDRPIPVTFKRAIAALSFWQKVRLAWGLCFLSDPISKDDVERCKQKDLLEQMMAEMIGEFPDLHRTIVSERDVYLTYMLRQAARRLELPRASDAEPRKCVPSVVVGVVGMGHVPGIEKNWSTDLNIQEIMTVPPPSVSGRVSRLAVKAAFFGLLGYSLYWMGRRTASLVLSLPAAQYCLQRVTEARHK
UniProt Q96GJ1: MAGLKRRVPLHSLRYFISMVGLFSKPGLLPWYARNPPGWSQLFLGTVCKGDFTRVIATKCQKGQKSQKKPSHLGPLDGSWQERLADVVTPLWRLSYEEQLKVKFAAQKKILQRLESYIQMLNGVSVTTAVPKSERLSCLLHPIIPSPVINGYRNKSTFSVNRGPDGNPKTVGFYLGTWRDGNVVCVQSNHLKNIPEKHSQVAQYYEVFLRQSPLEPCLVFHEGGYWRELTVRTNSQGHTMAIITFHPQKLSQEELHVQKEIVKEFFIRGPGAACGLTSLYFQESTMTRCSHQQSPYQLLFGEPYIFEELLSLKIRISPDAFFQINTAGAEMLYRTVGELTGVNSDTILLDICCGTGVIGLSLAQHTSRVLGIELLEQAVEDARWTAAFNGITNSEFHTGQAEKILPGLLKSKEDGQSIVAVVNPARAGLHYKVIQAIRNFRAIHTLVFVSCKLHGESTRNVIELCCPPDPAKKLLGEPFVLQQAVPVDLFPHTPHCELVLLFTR
UniProt Q15628: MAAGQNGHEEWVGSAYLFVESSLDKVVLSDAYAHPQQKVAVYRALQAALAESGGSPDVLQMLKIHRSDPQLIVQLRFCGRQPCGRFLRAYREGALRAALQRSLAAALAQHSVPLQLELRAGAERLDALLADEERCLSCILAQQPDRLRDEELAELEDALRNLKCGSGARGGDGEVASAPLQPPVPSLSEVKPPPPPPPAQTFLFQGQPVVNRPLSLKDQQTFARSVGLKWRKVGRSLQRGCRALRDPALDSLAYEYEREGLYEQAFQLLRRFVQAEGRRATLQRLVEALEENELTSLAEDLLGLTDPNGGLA
UniProt Q13263: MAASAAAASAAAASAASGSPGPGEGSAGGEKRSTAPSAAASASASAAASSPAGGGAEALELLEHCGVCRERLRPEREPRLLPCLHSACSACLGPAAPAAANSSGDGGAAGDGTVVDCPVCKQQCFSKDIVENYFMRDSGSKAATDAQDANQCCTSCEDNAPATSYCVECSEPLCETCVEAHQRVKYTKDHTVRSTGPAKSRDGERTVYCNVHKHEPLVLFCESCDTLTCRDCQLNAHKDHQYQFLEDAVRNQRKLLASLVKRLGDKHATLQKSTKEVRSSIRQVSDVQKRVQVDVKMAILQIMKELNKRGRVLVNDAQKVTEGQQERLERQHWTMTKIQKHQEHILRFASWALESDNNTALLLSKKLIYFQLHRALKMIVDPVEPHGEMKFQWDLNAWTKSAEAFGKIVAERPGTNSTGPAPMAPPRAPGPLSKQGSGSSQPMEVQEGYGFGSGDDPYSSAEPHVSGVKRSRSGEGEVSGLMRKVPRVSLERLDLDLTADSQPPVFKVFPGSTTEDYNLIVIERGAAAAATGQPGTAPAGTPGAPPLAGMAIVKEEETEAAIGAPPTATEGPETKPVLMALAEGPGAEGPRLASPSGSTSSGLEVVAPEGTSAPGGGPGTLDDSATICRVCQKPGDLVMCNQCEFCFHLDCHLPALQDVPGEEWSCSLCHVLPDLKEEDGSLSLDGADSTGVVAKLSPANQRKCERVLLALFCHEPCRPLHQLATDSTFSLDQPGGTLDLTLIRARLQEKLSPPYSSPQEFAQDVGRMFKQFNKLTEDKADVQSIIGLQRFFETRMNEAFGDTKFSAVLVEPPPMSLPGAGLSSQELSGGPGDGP
UniProt Q7Z392: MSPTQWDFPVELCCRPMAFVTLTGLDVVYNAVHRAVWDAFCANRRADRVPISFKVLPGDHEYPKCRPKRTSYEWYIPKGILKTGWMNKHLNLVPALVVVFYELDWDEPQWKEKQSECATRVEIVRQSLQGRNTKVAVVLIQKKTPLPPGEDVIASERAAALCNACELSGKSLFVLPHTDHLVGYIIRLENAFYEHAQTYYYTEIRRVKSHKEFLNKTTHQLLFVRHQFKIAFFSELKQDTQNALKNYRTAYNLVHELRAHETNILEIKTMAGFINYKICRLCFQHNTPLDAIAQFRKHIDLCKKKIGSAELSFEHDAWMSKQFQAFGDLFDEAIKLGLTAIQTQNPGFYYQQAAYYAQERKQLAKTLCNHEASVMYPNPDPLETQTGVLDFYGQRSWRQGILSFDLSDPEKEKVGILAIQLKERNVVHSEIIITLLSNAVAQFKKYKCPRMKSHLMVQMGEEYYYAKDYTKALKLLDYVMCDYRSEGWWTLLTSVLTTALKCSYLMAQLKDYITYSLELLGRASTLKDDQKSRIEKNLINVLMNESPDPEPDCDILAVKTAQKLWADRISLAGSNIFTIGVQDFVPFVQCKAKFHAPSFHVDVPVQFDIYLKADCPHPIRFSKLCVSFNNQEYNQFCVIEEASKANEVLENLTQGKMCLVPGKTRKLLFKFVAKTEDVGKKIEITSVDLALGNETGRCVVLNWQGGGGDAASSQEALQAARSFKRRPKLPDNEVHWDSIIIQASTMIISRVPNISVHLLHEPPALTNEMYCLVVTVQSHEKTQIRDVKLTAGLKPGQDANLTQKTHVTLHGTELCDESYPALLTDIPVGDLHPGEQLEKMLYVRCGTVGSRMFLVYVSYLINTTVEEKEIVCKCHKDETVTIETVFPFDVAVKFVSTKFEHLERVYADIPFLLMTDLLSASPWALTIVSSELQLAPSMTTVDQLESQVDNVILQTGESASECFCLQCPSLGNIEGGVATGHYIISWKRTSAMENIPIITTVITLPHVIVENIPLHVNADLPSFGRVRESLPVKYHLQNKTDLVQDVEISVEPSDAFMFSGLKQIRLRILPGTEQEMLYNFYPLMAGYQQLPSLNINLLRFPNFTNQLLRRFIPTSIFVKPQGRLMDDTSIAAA

What was measured:
Test in all cases: log2 fold change, soluble protein after heating vs DMSO (PISA); higher = thermal stabilisation; K562 cells, 10 uM, 30 min; active = over 0.2 and 3.5 SD of the protein, either way, in both replicates (recomputed)
erlotinib = compound: C#Cc1cccc(Nc2ncnc3cc(OCCOC)c(OCCOC)cc23)c1 [erlotinib]
Outline: (§1)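 Aliquots of K562 cells (2×10^6 cells/mL) treated with 10 μM compound for 30 min were heated for 3 min over 48°C-58°C. After pooling and extraction in PBS with 0.5% NP-40 at 4°C, soluble protein from a 21,000xg, 90 min spin was quantified by TMTpro 16plex LC-MS/MS with channel sums equalised. Thermal stability is expressed against control samples, from duplicates, as a log2 fold change.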

[1] = compound: C/C(=N\NC(=O)C1=CC(=CC=C1)S(=O)(=O)N2CCOCC2)/C3=C(C=CC(=C3)Cl)O
Outline: as §1

[2] = compound: C1=CC(=C(C=C1Cl)C2=NC3=NC=CN=C3C(=N2)NC4=CC=NC=C4)F
Outline: as §1

[3] = compound: C1=CC(=CC=C1C2=NC3=C(N2)C=C(C=C3)C(=O)N)OC4=CC=C(C=C4)Cl
Outline: as §1

[4] = compound: C1=CC2=C(C=CC(=C2)/C=C\3/C(=O)NC(=NCC4=CC=CS4)S3)N=C1
Outline: as §1

[5] = compound: C1=CC2=NC=CN=C2C=C1/C=C/3\C(=O)NC(=O)S3
Outline: as §1

[6] = compound: C1=CC=C(C=C1)C2=NC(=C(N2)C3=CC=NC=C3)C4=CC(=C(C=C4)Cl)O
Outline: as §1

[7] = compound: C1=CC=C2C(=C1)C3=NNC4=CC=CC(=C43)C2=O
Outline: as §1

[8] = compound: C1CCN(C1)C(=O)NC2=CC=CC(=C2)NC3=NC=C(C(=N3)NCCC4=CN=CN4)Br
Outline: as §1

[9] = compound: C1CN(CCC1(CC2=CC=C(C=C2)Cl)N)C3=NC=NC4=C3C=CN4
Outline: as §1

IRAK-1-4 Inhibitor I = compound: C1COCCN1CCN2C3=CC=CC=C3N=C2NC(=O)C4=CC(=CC=C4)[N+](=O)[O-] [IRAK-1-4 Inhibitor I]
Outline: as §1

ibrutinib = compound: C=CC(=O)N1CCC[C@@H](n2nc(-c3ccc(Oc4ccccc4)cc3)c3c(N)ncnc32)C1 [ibrutinib]
Outline: as §1

[10] = compound: CC(=O)c1cnc2ccc(-c3cc(Cl)c(O)c(Cl)c3)nc2c1N[C@H]1CC[C@H](CN(C)C)CC1
Outline: as §1

ralimetinib = compound: CC(C)(C)Cn1c(N)nc2ccc(-c3[nH]c(C(C)(C)C)nc3-c3ccc(F)cc3)nc21 [ralimetinib]
Outline: as §1

[11] = compound: CC(C)(O)CC(=O)NCCn1ccc2ncnc(Nc3ccc(Oc4cccc(C(F)(F)F)c4)c(Cl)c3)c21
Outline: as §1

[12] = compound: CC(C)C1=C2N=C(C=C(N2N=C1)NCC3=CC=CC=C3)NCCCCCCN
Outline: as §1

[13] = compound: CC(C)C[C@@H](C=O)NC(=O)[C@H](CC(C)C)NC(=O)[C@H](CC(C)C)NC(=O)OCc1ccccc1
Outline: as §1

pinometostat = compound: CC(C)N(C[C@H]1O[C@@H](n2cnc3c(N)ncnc32)[C@H](O)[C@@H]1O)[C@H]1C[C@@H](CCc2nc3cc(C(C)(C)C)ccc3[nH]2)C1 [pinometostat]
Outline: as §1

[14] = compound: CC1=C(C2=C(C=C1)C(=O)C3=CC=CC=C3N2CCCN)C
Outline: as §1

[15] = compound: CC1=C(C(CC(=O)N1)C2=CC=C(C=C2)C(F)(F)F)C(=O)NC3=C(C=C4C(=C3)C=NN4)F
Outline: as §1

Measured: log2 fold change

TOMM20 (UniProt Q15388)
inactive: erlotinib 0.073 | [1] -0.01 | [2] -0.013 | [3] 0.004 | [4] 0.012 | [5] 0.018 | [6] 0.049 | [7] -0.006 | [8] 0.007 | [9] 0.027 | IRAK-1-4 Inhibitor I 0.006 | ibrutinib 0 | [10] 0.003 | ralimetinib -0.017 | [11] 0.118 | [13] 0.047 | pinometostat 0.022 | [14] 0.018
active: [12] -0.343

TP53BP1 isoform 2 (UniProt Q12888)
inactive: erlotinib -0.011 | [1] 0.019 | [2] -0.017 | [3] -0.001 | [4] 0.012 | [5] 0.043 | [6] -0.024 | [7] -0.078 | [8] -0.057 | [9] -0.077 | IRAK-1-4 Inhibitor I -0.059 | ibrutinib -0.046 | [10] -0.002 | ralimetinib 0.056 | [11] -0.024 | [12] -0.089 | [13] 0.019 | pinometostat 0.021
active: [14] -0.337

TOM1 isoform 2 (UniProt O60784)
inactive: erlotinib 0.012 | [1] 0.014 | [2] 0.107 | [3] -0.04 | [4] -0.006 | [5] -0.016 | [6] -0.053 | [7] 0.004 | [8] -0.023 | [9] 0.014 | IRAK-1-4 Inhibitor I 0.101 | ibrutinib 0.013 | [10] 0.028 | ralimetinib 0.071 | [11] -0.017 | [12] -0.302 | [13] 0.033 | pinometostat 0.023 | [14] 0.16

TNPO1 (UniProt Q92973)
active: [14] -0.231
inactive: erlotinib -0.032 | [1] 0.08 | [2] 0.038 | [3] 0.011 | [4] -0.006 | [5] 0.016 | [6] 0.008 | [7] -0.027 | [8] -0.001 | [9] 0 | IRAK-1-4 Inhibitor I 0.01 | ibrutinib 0.001 | [10] 0.043 | ralimetinib -0.01 | [11] -0.029 | [12] -0.193 | [13] -0.011 | pinometostat -0.006

TPRA1 (UniProt Q86W33)
inactive: erlotinib -0.002 | [1] 0.139 | [2] -0.091 | [3] 0.247 | [4] 0.224 | [7] 0.085 | [10] 0.221 | [11] 0.009 | [12] -0.267 | [15] 0.071

TRABD (UniProt Q9H4I3)
inactive: erlotinib -0.057 | [1] -0.023 | [2] -0.029 | [3] 0.016 | [4] 0.032 | [5] -0.049 | [6] 0.121 | [7] 0.074 | [8] -0.077 | [9] 0.071 | IRAK-1-4 Inhibitor I -0.046 | ibrutinib 0.007 | [10] -0.032 | ralimetinib 0.073 | [11] 0.277 | [13] 0.045 | pinometostat 0.018 | [14] -0.005
active: [12] 0.416

TRMT2B (UniProt Q96GJ1)
inactive: erlotinib 0.165 | [1] -0.093 | [3] 0.158 | [4] 0.006 | [5] 0.11 | [6] -0.013 | [7] 0.044 | [8] 0.022 | [9] 0.06 | ibrutinib 0.017 | [10] -0.001 | ralimetinib -0.048 | [12] -0.308 | [13] 0.023 | [15] 0.026 | [14] -0.007

TPP1 (UniProt O14773)
active: [12] -0.492
inactive: erlotinib 0.013 | [1] 0.009 | [2] 0.059 | [3] -0.015 | [4] -0.007 | [5] 0.024 | [6] 0.034 | [7] -0.014 | [8] -0.012 | [9] -0.017 | IRAK-1-4 Inhibitor I -0.007 | ibrutinib -0.01 | [10] -0.006 | ralimetinib -0.025 | [11] 0.059 | [13] 0.043 | pinometostat -0.052 | [14] -0.009

TRADD (UniProt Q15628)
inactive: erlotinib 0.143 | [1] 0.023 | [2] -0.109 | [3] 0.001 | [4] 0.063 | [6] 0.002 | [7] -0.054 | [10] -0.007 | ralimetinib 0.043 | [11] -0.156 | [12] -0.316 | [13] -0.246 | [15] 0.029

TRIM28 (UniProt Q13263)
inactive: erlotinib 0.001 | [1] 0.077 | [2] 0.041 | [3] -0.023 | [4] -0.021 | [5] 0.018 | [6] -0.023 | [7] 0.004 | [8] -0.013 | [9] -0.026 | IRAK-1-4 Inhibitor I -0.008 | ibrutinib -0.033 | [10] 0.052 | ralimetinib -0.003 | [11] -0.035 | [12] -0.087 | [13] 0.018 | pinometostat -0.056 | [14] -0.152

TRAPPC2 isoform 3 (UniProt P0DI81)
inactive: erlotinib -0.024 | [1] 0.107 | [3] 0.041 | [4] -0.046 | [5] -0.053 | [6] 0.001 | [7] 0.045 | [8] -0.103 | [9] 0.123 | ibrutinib 0.01 | [10] -0.122 | ralimetinib 0.031 | [12] -0.046 | [13] 0.161 | [15] -0.144 | [14] -0.15

TRAPPC11 (UniProt Q7Z392)
inactive: erlotinib 0.044 | [1] 0.136 | [2] -0.027 | [3] 0.017 | [4] 0.105 | [5] 0.059 | [6] 0.027 | [7] 0.062 | [8] -0.019 | [9] -0.001 | IRAK-1-4 Inhibitor I -0.007 | ibrutinib 0.001 | [10] -0.048 | ralimetinib 0.034 | [11] -0.063 | [12] -0.064 | [13] 0.012 | pinometostat 0.032 | [14] 0.028
